The supplement of paper PMC8256030
Where “and” joins values, the source holds several entries; their conditions need not be identical. Identical values can stand only once. The list shows a part of the results. This data set is noisy: repeats of one test often differ as much as different tests do.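 HEK293T cells were given each compound shortly before transfection with a reporter in which red mCherry is followed by the SARS-CoV-2 frameshift element and then GFP in the −1 frame, so GFP appears only after frameshifting.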

Tested on: SARS-CoV-2 -1 PRF reporter mCherry-FSE-GFP(-1)
Assay: mCherry (red) intensity as percent of control; higher = higher upstream reporter expression
Conditions: 10 µM; 24 h; HEK293T

Compared with `CCOC(=O)NNc1ccc(N(CC)CC(C)O)nn1` (configuration not stated) [cadralazine], `CC(C)Cc1ccc(CC(=O)O)cc1` [ibufenac] is higher in mCherry: 64.7% for the first, 106% for the second.

First: CC1(C)OC[C@@H]2O[C@@]3(C(=O)O)OC(C)(C)O[C@H]3[C@@H]2O1 [diprogulic acid]
Second: C[C@]12CC[C@H]3[C@@H](CCC4=CC(=O)CC[C@@]43C)[C@@H]1CC[C@@H]2C(=O)CO [desoxycortone]
The mCherry of the first is higher: 105% for the first, 76.3% for the second.

First: CCCOC(=O)c1ccc(N)cc1 [risocaine]
Second: COc1ccc(-n2c(C)c[nH]c2=O)cc1 [metazamide]
The mCherry of the first is higher: 98.4% for the first, 92.1% for the second.

Compared with `CC(C)(C)C(=O)OCOC(=O)[C@@H]1N2C(=O)[C@@H](/N=C/N3CCCCCC3)[C@H]2SC1(C)C` [pivmecillinam], `CC[C@]12CCCN3CCc4c(n(c5ccccc45)[C@@](O)(C(=O)OC)C1)[C@@H]32` [vincamine] is higher in mCherry: 66.2% for the first, 111% for the second.

Going from `CN(C)C(=N)NC(=N)N` [metformin] to `C=CCNC(N)=S` [allylthiourea], the mCherry rises from 98.4% to 108%.

First: Clc1ccc2nsnc2c1NC1=NCCN1 [tizanidine]
Second: C[C@@H]1C(=O)NC2=Nc3cccc(Cl)c3CN21 [quazinone]
The mCherry of the first is lower: 20.6% for the first, 104% for the second.

Going from `COC(=O)C1=C(C)NC(C)=C(C(=O)OC(C)C)C1c1cccc2nonc12` (configuration not stated) [isradipine] to `COC(=O)C1=C(C)NC(C)=C(C(=O)OC/C=C/c2ccccc2)C1c1cccc([N+](=O)[O-])c1` (configuration not stated) [pranidipine], the mCherry rises from 88.8% to 110%.

First: CN1CCN(CCC(=O)N2c3ccccc3Sc3ccc(C(F)(F)F)cc32)CC1 [ftormetazine]
Second: CN1CCCC(n2nc(Cc3ccc(Cl)cc3)c3ccccc3c2=O)CC1 (configuration not stated)
The mCherry of the first is lower: 17% for the first, 114% for the second.

Going from `O=c1[nH]c2cc(C(F)(F)F)c(N3CCOCC3)cc2n(CP(=O)(O)O)c1=O` [fanapanel] to `CCc1cn([C@H]2C[C@H](O)[C@@H](CO)O2)c(=O)[nH]c1=O`, the mCherry rises from 107% to 129%.

Compared with `CC[N+](C)(C)c1cccc(O)c1` [edrophonium chloride], `CC(C)(C)NCC(O)COc1cc(Cl)ccc1Cl` (configuration not stated) [cloranolol] is lower in mCherry: 113% for the first, 98.5% for the second.

First: Cc1ncsc1CCCCl [cloprothiazole]
Second: CC1=C(C)C(=O)C(CCCCC#CCCCC#CCO)=C(C)C1=O [docebenone]
The mCherry of the first is higher: 81.7% for the first, 79.5% for the second.

First: NS(=O)(=O)c1cc(C(=O)NN2C[C@@H]3[C@H]4CC[C@H](C4)[C@@H]3C2)ccc1Cl [tripamide]
Second: O=C(Nc1c(Cl)cncc1Cl)c1ccc(OC(F)F)c(OCC2CC2)c1 [roflumilast]
The mCherry of the first is higher: 98.5% for the first, 82.8% for the second.

Compared with `CCCCCCOC(=O)NC(=N)c1ccc(NCc2nc3cc(C(=O)N(CCC(=O)OCC)c4ccccn4)ccc3n2C)cc1`, `CCCCCCCCCCOc1cc2c(O)c(C(=O)OCC)cnc2cc1OCC` [decoquinate] is higher in mCherry: 87.2% for the first, 106% for the second.

First: O=C(O)CCNC(=O)c1ccc(/N=N/c2ccc(O)c(C(=O)O)c2)cc1 [balsalazide]
Second: CC1=C(CC(=O)O)c2cc(F)ccc2/C1=C\c1ccc([S+](C)[O-])cc1 (configuration not stated) [Sulindac]
The mCherry of the first is higher: 109% for the first, 94.9% for the second.

Compared with `C[N+](C)(C)CCOC(=O)CCC(=O)OCC[N+](C)(C)C` [Succinylcholine], `Cc1cc(C(C)(C)CC(C)(C)C)ccc1OCCOCC[N+](C)(C)Cc1ccccc1` [methylbenzethonium chloride] is higher in mCherry: 82.7% for the first, 118% for the second.

Compared with `NCC1CC(=O)N(Cc2ccccc2)C1` (configuration not stated) [nebracetam], `N=C(N)N/N=C/c1c(Cl)cccc1Cl` [guanabenz] is lower in mCherry: 121% for the first, 71.2% for the second.

First: CC(=O)N[C@H](Cc1ccc2ccccc2c1)C(=O)N[C@H](Cc1ccc(Cl)cc1)C(=O)N[C@H](Cc1cccnc1)C(=O)N[C@@H](CO)C(=O)N(C)[C@@H](Cc1ccc(O)cc1)C(=O)N[C@H](CC(N)=O)C(=O)N[C@@H](CC(C)C)C(=O)N[C@@H](CCCCNC(C)C)C(=O)N1CCC[C@H]1C(=O)N[C@H](C)C(N)=O [abarelix]
Second: CC(C)c1cc(C(C)C)c(-c2csc(N(CCN(C)C)Cc3cccnc3)n2)c(C(C)C)c1 [foropafant]
The mCherry of the first is higher: 96.3% for the first, 40.2% for the second.

`COc1c(-c2ccc3cc(NS(C)(=O)=O)ccc3c2)cc(-n2ccc(=O)[nH]c2=O)cc1C(C)(C)C` [Dasabuvir] gave a mCherry of 96.4%.

With `CN(Cc1cc(Br)cc(Br)c1N)C1CCCCC1` [bromhexine] the mCherry was 110% and 87.6%.
In the case of `CCCc1nc2c(C)cc(-c3nc4ccccc4n3C)cc2n1Cc1ccc(-c2ccccc2C(=O)O)cc1` [telmisartan], the mCherry is reported as 114% and 94.1%.
